Assay results reported in PubChem BioAssay AID588590 (National Center for Advancing Translational Sciences (NCATS), 2011).
Screen size: about 390,000 compounds; about 4,000 (1%) were called active. The shares of active, inactive and inconclusive entries below differ from those in the screen. Calls come from the whole dose curve; as a rule, active = well fitted inhibition curve with a large enough effect; inconclusive = small, poorly fitted or top-dose-only effect, or another doubt; inactive = no such curve, though single readings can be large or run the other way. A potency beside an inconclusive call is a rough fit, not a confirmed value.

Protein sequences, listed by entry. Tags and fused reporters are not part of them. Lines headed by an entry give the natural chain unless they say otherwise; changes in a name come on top.
UniProt Q9UNA4: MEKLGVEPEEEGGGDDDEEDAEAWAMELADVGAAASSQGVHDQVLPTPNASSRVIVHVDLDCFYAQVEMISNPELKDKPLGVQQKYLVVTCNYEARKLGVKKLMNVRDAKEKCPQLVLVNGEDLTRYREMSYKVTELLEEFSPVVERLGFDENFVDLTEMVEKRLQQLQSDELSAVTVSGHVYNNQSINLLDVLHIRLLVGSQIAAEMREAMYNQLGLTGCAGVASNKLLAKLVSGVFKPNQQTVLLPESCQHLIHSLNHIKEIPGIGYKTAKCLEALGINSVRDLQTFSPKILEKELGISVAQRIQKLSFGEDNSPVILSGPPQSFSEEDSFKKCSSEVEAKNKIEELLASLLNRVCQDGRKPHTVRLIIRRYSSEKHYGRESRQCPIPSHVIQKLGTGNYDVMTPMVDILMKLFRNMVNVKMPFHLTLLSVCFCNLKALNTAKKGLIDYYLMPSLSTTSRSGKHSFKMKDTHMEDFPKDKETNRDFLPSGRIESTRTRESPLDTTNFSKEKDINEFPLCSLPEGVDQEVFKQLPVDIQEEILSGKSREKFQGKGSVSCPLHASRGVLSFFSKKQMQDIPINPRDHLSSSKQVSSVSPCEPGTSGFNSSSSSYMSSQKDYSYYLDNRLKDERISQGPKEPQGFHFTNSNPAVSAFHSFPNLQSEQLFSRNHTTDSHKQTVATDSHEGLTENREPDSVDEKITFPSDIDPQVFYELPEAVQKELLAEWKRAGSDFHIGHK

What follows are molecules tested against DNA polymerase iota (Homo sapiens) (UniProt Q9UNA4) (assay: qHTS for Inhibitors of Polymerase Iota). Conditions: Pol iota fluorescent replication assay, 10 min; series mostly up to 115 µM; activity, negative = inhibition: at the top concentration.
Summary of the method: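 Fluorescent replication assay read twice, at 0 min and 10 min after adding 50 nM (final) substrate. Enzyme (10 nM) and compounds were first incubated 15 min at room temperature; enzyme-free buffer wells were negative controls.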
Potency is the fitted concentration of half-maximal effect.

Potency, active:
O=C1NC(=S)S/C1=C\C=C\c1ccc([N+](=O)[O-])o1 2.24 µM
C=C(C)Cn1c(=O)c2c(nc3n2CCN3c2cc(C)cc(C)c2)n(C)c1=O 79.4 µM
Cc1[nH][nH]c(=O)c1C(c1c(C)[nH][nH]c1=O)c1cn(Cc2ccc(Cl)c(Cl)c2)c2ccccc12 2.51 µM
N=C(N)c1ccc(/C=C/c2ccc(C(=N)N)cc2O)cc1 35.5 µM
COc1ccc(-n2c(SCC(=O)C(C)(C)C)nc3c(sc(=S)n3-c3ccccc3)c2=O)c(OC)c1 11.2 µM
COc1ccc2oc(=O)c(-c3nnc(NCc4ccco4)s3)cc2c1 10 µM
Cc1ccc(-c2cc(C(F)(F)F)n3nc(-c4cccc(Br)c4)cc3n2)cc1 89.1 µM

Potency, inconclusive:
CCOC(=O)c1c(C)[nH]c(C)c1C(=O)COC(=O)CNC(=O)c1ccc(OCC)cc1 35.5 µM [inhibitor, single point]
Cc1ccc2c(C)ccc(O)c2n1 2 µM [inhibitor, partial curve, poor fit]
O=C(O)c1ccccn1 14.1 µM [inhibitor, partial curve, poor fit]
Cc1ccc(-c2cc(C(=O)NCc3cn(C)nc3C)c3cc(Br)ccc3n2)cc1 44.7 µM [inhibitor, partial curve]
Cc1ccc(C)c(NNC(N)=S)c1 15.8 µM [inhibitor, partial curve, poor fit]
O=C(CS(=O)(=O)c1ccccc1)NCc1ccco1 15.8 µM [inhibitor, partial curve, poor fit]
COc1cccc(N(C(=O)c2snc(C(N)=O)c2N)C(C(=O)NCC2CCCO2)c2ccc(C)o2)c1 (stereo not given) 44.7 µM [inhibitor, single point]
CCOc1ccc(S(=O)(=O)N2CCCC(C(=O)NCc3cccnc3)C2)cc1 (stereo not given) 89.1 µM [inhibitor, single point]
O=C1/C(=C\c2cccc([N+](=O)[O-])c2O)SC(=S)N1Cc1ccccc1 14.1 µM [inhibitor, full curve, poor fit]
Nc1nc2ccc(C(=O)Nc3ccccc3)cc2s1 8.91 µM [inhibitor, full curve, poor fit]
COc1cc(F)c(S(=O)(=O)N2CCOc3ccccc32)cc1OC 35.5 µM [inhibitor, partial curve, poor fit]
COc1ccc(/C=C2\SC(=S)N(CCC(=O)Nc3cccc(O)c3)C2=O)cc1 39.8 µM [inhibitor, single point]
O=C1CCCc2c1cc(C(=O)Nc1ccc(Br)cn1)c(=O)n2-c1ccccc1 28.2 µM [inhibitor, single point]
CCOC(=O)c1c(-c2ccccc2)csc1NC(=O)C1CCCO1 (stereo not given) 12.6 µM [inhibitor, full curve]
Cc1ccc(-c2nn(C)c(=O)c3ccccc23)cc1CNC(=O)CSc1nc2ccccc2o1 6.31 µM [inhibitor, partial curve, poor fit]
O=C(Nc1ccc(S(=O)(=O)Nc2ncccn2)cc1)C12CC3CC(CC(Cl)(C3)C1)C2 28.2 µM [inhibitor, partial curve]
COc1ccc(OCCCC(=O)OCC(=O)Nc2sccc2C(N)=O)cc1 17.8 µM [inhibitor, full curve]
Cn1c(-c2ccco2)nc2cc3ccccc3cc21 17.8 µM [inhibitor, partial curve, poor fit]
COc1ccc(Cn2c(-c3ccco3)nc3oc4cc(OC)ccc4c(=O)c3c2=O)cc1 22.4 µM [inhibitor, single point]
CCn1c(CC(=O)Nc2ccccc2F)nnc1SCC(=O)NC1CCCCC1 100 µM [inhibitor, partial curve, poor fit]
CCOC(=O)CCCNC(=O)CN1C(=O)NC(CCc2ccccc2)C1=O (stereo not given) 126 µM [inhibitor, single point]
O=C(CSc1nnc(-c2ccncc2)o1)Nc1cc(Cl)ccc1C(=O)O 35.5 µM [inhibitor, partial curve, poor fit]
Cc1csc2ncc(C(=O)NCc3ccco3)c(=O)n12 44.7 µM [inhibitor, partial curve]
CCCn1c(SCC(=O)Nc2cccc(S(=O)(=O)N3CCCC3)c2)n[nH]c1=O 39.8 µM [inhibitor, single point]
Cc1cc(C)c(C)c(S(=O)(=O)N2CCC(C(=O)OCC(=O)N3c4ccccc4NC(=O)C3(C)C)CC2)c1C 20 µM [inhibitor, full curve, poor fit]
COc1ccc(CC(=O)Nc2ncc([N+](=O)[O-])s2)cc1OC 17.8 µM [inhibitor, partial curve, poor fit]
COc1ccc(Br)cc1[C@H]1[C@@H]2C=CCC[C@@]2(C)C(=O)N1Cc1ccccc1 31.6 µM [inhibitor, partial curve, poor fit]
COc1cc(/C=C/C(=O)O)cc2c1OCCO2 35.5 µM [inhibitor, partial curve]
Cc1cc(C)c(NC(=O)COC(=O)c2nc3nccc(C)n3n2)c(Cl)c1 79.4 µM [inhibitor, single point]
CN(C(=O)c1c[nH]c2ccc(S(=O)(=O)Nc3cccc(C(F)(F)F)c3)cc2c1=O)C1CCCCC1 79.4 µM [inhibitor, single point]
CC(=O)Nc1ccc(NC(=O)CN2C(=O)CC(c3ccco3)Sc3ccccc32)cc1 (stereo not given) 3.16 µM [inhibitor, full curve, poor fit]
Cc1cccc(NC(=O)c2nc[nH]c2C(=O)N[C@@H](CC(C)C)C(=O)OC(C)(C)C)c1 70.8 µM [inhibitor, single point]
O=C(Cn1c(=O)cnc2ccccc21)Nc1cc(Cl)ccc1N1CCOCC1 28.2 µM [inhibitor, partial curve, poor fit]
CCOC(=O)Nc1ccc(C(=O)/C=C/c2ccccc2)cc1 44.7 µM [inhibitor, partial curve]
CCCCCCCCCCCCCCCC[n+]1ccc(/C=C/c2c[nH]c3ccccc23)cc1 89.1 µM [inhibitor, partial curve, poor fit]
CN(CCO)c1ncnc2c1sc1nc(N3CCOCC3)c3c(c12)CCC3 22.4 µM [inhibitor, partial curve, poor fit]
COc1ccc(S(=O)(=O)/N=C2/NC(=O)/C(=C/c3ccco3)S2)cc1 44.7 µM [inhibitor, partial curve]
O=C(Nc1ccc2nc3n(c(=O)c2c1)CCCCC3)c1ccccc1[N+](=O)[O-] 89.1 µM [inhibitor, partial curve, poor fit]
CCOC(=O)c1ccc(NC(=O)CN(Cc2ccc(C)cc2)S(=O)(=O)c2ccc(C)cc2)cc1 79.4 µM [inhibitor, single point]
CC(C)=CCC/C(C)=C/CNC(=O)C[C@H]1C[C@H](C(=O)N2CCOCC2)[C@@]2(CCC3CCCC3)c3[nH]c4cc(-c5ccco5)ccc4c3CCN2C1=O 35.5 µM [inhibitor, single point]
CCOc1ccc2[nH]c(=O)c(C(c3nnnn3CC3CCCO3)N3CCc4ccccc4C3)cc2c1 (stereo not given) 17.8 µM [inhibitor, partial curve]
COc1ccc(CCC(=O)O)c(O)c1 25.1 µM [inhibitor, single point]
S=c1[nH]nc(-c2cccnc2)n1/N=C/C=C/c1ccco1 50.1 µM [inhibitor, partial curve]

Fetched by structure from the list above (5):
Potency, inconclusive:
CCOc1ccc(S(=O)(=O)N2CCCC(C(=O)NCc3cccnc3)C2)cc1 (stereo not given) 89.1 µM [inhibitor, single point]
O=C(O)c1ccccn1 14.1 µM [inhibitor, partial curve, poor fit]
O=C(Nc1ccc(S(=O)(=O)Nc2ncccn2)cc1)C12CC3CC(CC(Cl)(C3)C1)C2 28.2 µM [inhibitor, partial curve]
Cc1csc2ncc(C(=O)NCc3ccco3)c(=O)n12 44.7 µM [inhibitor, partial curve]
COc1ccc(OCCCC(=O)OCC(=O)Nc2sccc2C(N)=O)cc1 17.8 µM [inhibitor, full curve]

Next part:

activity, negative = inhibition, inactive:
CC(C)NC(=O)c1ccc2c3n(nc2c1)-c1ccccc1CO3 31.8%
Cc1ccc(-c2csc(NC(=O)CSc3nc4ccccc4[nH]3)n2)cc1 -11.2%
CCCN(CCC)CCCNC(=O)c1cn(CCOC)c(=O)c2c1c1ccccc1n2C 40%
CC(=O)Nc1cccc(NC(=O)CSc2ccc(-c3ccccn3)nn2)c1 49.2%
COc1ccc(NC(=O)c2cnc(Nc3ccc(C)c(Cl)c3)c3ccccc23)c(OC)c1 17.6%
CCCN1CNc2c(c(=O)[nH]c(=S)n2CCc2cc(OC)cc(OC)c2)C1 3.55%
Cc1ccccc1CCNC(=O)c1ccc(NC(=O)N2CC(C)Sc3ccccc32)cc1 (stereo not given) -2.31%
O=C(O)c1cc(-c2ccco2)[nH]n1 -8.93%
CC1=C/C(=C(\c2ccc(O)c(C)c2)c2ccccc2S(=O)(=O)O)C=CC1=O 40.1%
Cc1ccc(CNC(=O)CCc2c(C)nc3c(-c4ccc(F)cc4)c(C)nn3c2C)cc1 2.86%
O=C1Nc2ccccc2C1Cc1ccccn1 (stereo not given) -6.18% [at 58.9 µM]
Cc1ccc(CSCCC(=O)N2CCN(c3ccc(F)cc3)CC2)cc1 -17.9%
S=C(NCCCN(Cc1ccc(Cl)cc1)c1ccc(Br)cn1)NCc1ccc2nc[nH]c2c1 -11%
CN(C)S(=O)(=O)c1ccc(C(=O)NCCSc2c(-c3ccc(Br)cc3)[nH]c3ccccc23)cc1 14.8%
CC(C)Oc1ccc(CNC(=O)CN2C(=O)CCn3nc(-c4cn(C)c5ccccc45)cc32)cc1 -21.3%
